Measured data: PubChem BioAssay AID504808 (Drosophila RNAi Screening Center, 2011)

Assay: 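Fly genes required to hold E2F transcription in check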 (primary screen)
Cells: Drosophila S2 cells
Reagents: long dsRNA against Drosophila genes
Measurement: 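Dual luciferase plate measurements; E2F-specific signal taken as firefly over Renilla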
Scale: E2F firefly: higher = more E2F reporter activity; Renilla normaliser: higher = more normaliser reporter signal
Active means: 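a knock-down counted as active when the firefly/Renilla E2F signal rose above 50%, a threshold chosen arbitrarily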
The deposit covers about 21,000 reagents; this is a random part of those with a known target gene and a result. In the full data, 18 (0.084%) are marked active. 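Raw counts without plate normalisation, one of two replicates; the ratio scores behind the calls were not deposited.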 Entries without a mark were called inactive. Reagents against one gene are numbered here. Names joined by + are all predicted targets of the reagent. Not stated in the record: the amount of reagent, the time to read-out.

| predicted target | reagent | E2F firefly, rep 1 | Renilla normaliser, rep 1 |
| --- | --- | --- | --- |
| Ir93a (Ionotropic receptor 93a) | 1 | 69625 | 5386 |
| Ir93a (Ionotropic receptor 93a) | 2 | 1.53e5 | 7465 |
| Noc1 (Nucleolar complex protein 1) | 1 | 74284 | 4422 |
| kek2 (kekkon 2) | 1 | 1.67e5 | 6638 |
| Ptp10D (Protein tyrosine phosphatase 10D) | 1 | 1.35e5 | 6326 |
| Sec6 (Secretory 6) | 1 | 83145 | 3397 |
| PolA2 (DNA polymerase alpha subunit 2) | 1 | 1.02e5 | 5601 |
| CG3104 | 1 | 1.60e5 | 5275 |
| Sry-alpha (Serendipity alpha) | 1 | 1.09e5 | 5083 |
| Kdm5 (Lysine demethylase 5) | 1 | 50288 | 208 |
| CG8907 | 1 | 61008 | 3639 |
| CG11626 | 1 | 1.37e5 | 6578 |
| CG33958 | 1 | 1.61e5 | 5070 |
| CG33958 | 2 | 1.52e5 | 5229 |
| sau (sauron) | 1 | 91681 | 4116 |
| Gsc (Goosecoid) | 1 | 1.66e5 | 6035 |
| LUBEL (Linear Ubiquitin E3 ligase) | 1 | 1.43e5 | 4600 |
| CG11658 | 1 | 1.17e5 | 6423 |
| CG42544 | 1 | 69289 | 4174 |
| EMC2B + EMC2A | 1 | 1.22e5 | 7555 |
| CG15554 | 1 | 1.25e5 | 7404 |
| upSET | 1 | 63024 | 3264 |
| Sc2 | 1 | 67602 | 3087 |
| CG13044 | 1 | 1.78e5 | 8436 |
| Clbn (Caliban) | 1 | 1.22e5 | 6520 |
| CG6661 | 1 | 66377 | 3189 |
| mthl5 (methuselah-like 5) | 1 | 1.29e5 | 6244 |
| Etfb (Electron transfer flavoprotein beta subunit) | 1 | 1560 | 984 |
| Spn53F (Serpin 53F) | 1 | 1.47e5 | 5687 |
| CG17652 | 1 | 1.74e5 | 5919 |
| Alp2 (Alkaline phosphatase 2) | 1 | 93129 | 3717 |
| CG31710 | 1 | 1.31e5 | 6078 |
| fray (frayed) | 1 | 1.32e5 | 7108 |
| CG14984 | 1 | 99372 | 4060 |
| saturn | 1 | 1.29e5 | 2960 |
| CG13947 | 1 | 1.62e5 | 7079 |
| Taf10b + Taf10 | 1 | 1.53e5 | 5819 |
| Kaz-m1 (Kazal-type protease inhibitor m1) | 1 | 1.07e5 | 5760 |
| hlk (hulk) | 1 | 98309 | 3344 |
| hlk (hulk) | 2 | 98907 | 3975 |
| pps (protein partner of snf) | 1 | 60190 | 6611 |
| CG17930 | 1 | 68848 | 3152 |
| fy (fuzzy) | 1 | 1.43e5 | 5183 |
| lectin-37Da | 1 | 99208 | 4653 |
| Pgant6 (Polypeptide N-Acetylgalactosaminyltransferase 6) | 1 | 79937 | 3407 |
| CG16700 | 1 | 1.53e5 | 6493 |
| CG34200 | 1 | 1.33e5 | 6386 |
| Kaz1-ORFB + Kaz1-ORFA | 1 | 1.00e5 | 4778 |
| CG14257 | 1 | 1.22e5 | 5950 |
| CG3408 | 1 | 1.32e5 | 7568 |
| raw | 1 | 1.02e5 | 4519 |
| raw | 2 | 1.63e5 | 5960 |
| CG30083 | 1 | 1.39e5 | 5132 |
| BtbVII (BTB-protein-VII) | 1 | 82816 | 3177 |
| BtbVII (BTB-protein-VII) | 2 | 75380 | 3168 |
| CG15740 | 1 | 40414 | 3300 |
| PIG-U (Phosphatidylinositol glycan anchor biosynthesis class U) | 1 | 75455 | 3474 |

Reformatted: entries from further up.
predicted target	reagent	E2F firefly, rep 1	Renilla normaliser, rep 1
Sec6 (Secretory 6)	1	83145	3397
PolA2 (DNA polymerase alpha subunit 2)	1	1.02e5	5601
CG3104	1	1.60e5	5275
Sry-alpha (Serendipity alpha)	1	1.09e5	5083
